Like-named read-outs stand apart in the source and are kept apart here.
Key:
[1] = test system: Bax gene expression in Panc1 cells; assay: SYBR Green RT-PCR gene expression, Bax; format: cell-based; conditions: 48 h, (Z)-3-hexenyl-β-D-glucopyranoside at 10 µM, control 1.436
Procedure: (§1) The effects of 10 µM of (Z)-3-hexenyl-β-D-glucopyranoside on the mRNA expression of caspase3, bax, and Bcl-2 genes were investigated using the reverse transcription-polymerase […] technique. After a 48-hour incubation of (Z)-3-hexenyl-β-D-glucopyranoside in Panc1 (pancreatic carcinoma) cells, mRNA isolation of the selected proteins was performed using the RN easy extraction kit (Qiagen, Hilden, Germany), following previously described methods (Janicke et al. [1998]). For real-time quantitative PCR of the RNA templates, a one-step RT-PCR kit with SYBR® Green (Bio-Rad SYBR Green PCR MMX, Hercules, California, USA) was added to a 25 μL 2X SYBR® Green RT-PCR reaction mix (Bio-Rad, Hercules, California, USA). The reaction mix contained 2X reaction buffer with 0.4 mM of each dNTP, magnesium chloride, iTaq DNA polymerase, 20 nM fluorescein SYBR® Green I dye, stabilizers, 11 μL nuclease-free water, 1.5 μL reverse primer (10 μM), 1.5 μL forward primer (10 μM), 1 μL iScript reverse transcriptase, and RNA template (1 pg to 100 ng total RNA). The cDNA synthesis and PCR amplifications were performed in the same tube using Rotor-Gene RT-PCR (Qiagen, Hilden, Germany) software 1.7 (Abed et al. [2021]). The primers used in the RT-PCR reaction were obtained from Corbett Life Science Division (Reg. No. QEC21313), Corbett Research, Mortlake, Australia. […]

[2] = test system: Casp3 gene expression in Panc1 cells; assay: SYBR Green RT-PCR gene expression, caspase3; format: cell-based; conditions: 48 h, (Z)-3-hexenyl-β-D-glucopyranoside at 10 µM, control 1
Procedure: as §1

in vitro = conditions: human
Procedure: (§2) The cell lines PANC-1 (pancreatic carcinoma), MCF7 (breast carcinoma), HepG2 (hepatocellular carcinoma), and WI-38 (normal lung fibroblast cells) were obtained from the American Type Culture Collection (ATCC) located in Manassas, Virginia, United States. These cell lines were cultured in DMEM (Invitrogen, Life Technologies, Rockville, MD, USA) medium supplemented with 10% FBS (Fetal Bovine Serum, Hyclone, Thermo Fisher Scientific, Waltham, MA, USA) and 1% penicillin (Sigma-Aldrich, Louis, MO, USA). The cells were maintained at 37°C in a 5% CO2 and 95% humidity environment for a maximum period of two weeks to ensure their viability for further experimentation. […]
(§3) The cultivated cells were seeded in 96-well plates at a concentration of 1 × 10^4 cells/100 μL per well (Naik et al. [2014]). […] The viability of the cancer cells was determined by measuring the amount of formazan formed by viable cells. […] The intensity of the produced colour was measured using an ELISA plate reader (Bio-Tek EL 800, Agilent technology, Santa Clara, CA, USA) at wavelength of 570 nm. The percent of cells viability was calculated by the following equation: %viability=AA570oftreated-AA570ofblank/AA570ofcontrol-AA570ofblank×100
(§4) AA Average of triplicate absorbances for each sample concentration

[3] = test system: MCF7 (breast carcinoma) cells; assay: MTT cytotoxicity assay, MCF7; conditions: Homo sapiens, MCF7, 48 h, read-out: Cytotoxicity IC50 MCF7
Procedure: as §2, §3, §4

[4] = test system: Panc1 (pancreatic carcinoma) cells; assay: MTT cytotoxicity assay, Panc1
Procedure: as §2, §3, §4

[5] = test system: HepG2 (hepatocellular carcinoma) cells; assay: MTT cytotoxicity assay, HepG2; conditions: Homo sapiens, HepG2, 48 h, read-out: Cytotoxicity IC50 HepG2
Procedure: as §2, §3, §4

[6] = test system: Bcl-2 gene expression in Panc1 cells; assay: SYBR Green RT-PCR gene expression, Bcl-2; format: cell-based; conditions: 48 h, (Z)-3-hexenyl-β-D-glucopyranoside at 10 µM, control 1
Procedure: as §1

With `CN[C@@H]1C[C@H]2O[C@@](C)([C@@H]1OC)n1c3ccccc3c3c4c(c5c6ccccc6n2c5c31)C(=O)NC4` [Staurosporine, reference compound] the “RT-PCR results fold change Bax” value [1] was 6.217 fold, the “RT-PCR results fold change Casp3” value [2] was 6.794 fold and the IC50 (in vitro) was 41 µM. It also gave an IC50 [3] of 20.8 µM, an IC50 ([4]; Homo sapiens, PANC-1, 48 h, read-out: Cytotoxicity IC50 Panc1) of 15.5 µM and an IC50 ([4]; human) of 15.7 µM. The IC50 [5] was 11.7 µM and the “RT-PCR results fold change Bcl-2” value [6] was 0.183 fold.
